Values from PubChem BioAssay AID504764 (Drosophila RNAi Screening Center, 2011)
The screen tested about 22,000 reagents; below is an unselected part of those that have a named target and a result. Of all reagents, 403 (1.9%) are marked active. 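Unnormalised raw counts per well; ratio z-scores behind the hit calls and whether each hit raises or lowers signal are not deposited.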 A plus sign joins genes that one reagent is predicted to hit. No sequences are given here. Not stated in the record: the amount of reagent.

Test: 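Knock-downs that raise or lower a Notch target reporter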 (primary screen)
System: Drosophila Kc167 cells
Reagents: long dsRNA against Drosophila genes
Duration: about 5 days (4 days dsRNA, then 24 h after transfection)
Treatment: transfection of constitutively active membrane-tethered Notch lacking the extracellular domain, read 24 h later
Measured: 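Light from a Notch-responsive E(spl)m3 luciferase reporter under active Notch, with control-promoter and no-Notch reporter wells to normalise; raw counts from paired wells a and b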
Scale: induced reporter light, run 1, well a and induced reporter light, run 1, well b: higher = more light from the Notch target reporter with active Notch; control promoter light, run 1, well a and control promoter light, run 1, well b: higher = more light from the viral control promoter (cell number, transfection, viability); uninduced reporter light, run 1, well a: higher = more light from the Notch target reporter without active Notch
Call rule: 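Hit if the duplicate-averaged log2 ratio of induced to control-promoter light gives a plate-wise z beyond ±2, or induced to uninduced beyond ±1.8; weak-control or discordant-duplicate wells dropped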
Meaning of the calls: active = modifier hit (raised or lowered Notch signal); inactive = not a hit

gene	amplicon	induced reporter light, run 1, well a	induced reporter light, run 1, well b	control promoter light, run 1, well a	control promoter light, run 1, well b	uninduced reporter light, run 1, well a	Outcome
CG15705	DRSC06576	94430	84910	95645	1.04e5	6830	inactive
CG13315	DRSC09986	2.10e5	2.21e5	2.85e5	2.70e5	11635	inactive
Gr21a (Gustatory receptor 21a)	DRSC00366	1.23e5	1.18e5	1.16e5	68710	9520	inactive
GstD9 (Glutathione S transferase D9)	DRSC14185	83115	85910	86640	46940	6215	inactive
CG14312	DRSC14791	2.37e5	1.55e5	2.09e5	2.14e5	12050	inactive
Nf-YB (Nuclear factor Y-box B)	DRSC02057	61450	43410	46990	60375	3170	inactive
CG31710	DRSC01089	1.12e5	1.14e5	1.41e5	1.28e5	8805	inactive
Atg10 + CG18853 + CG12822	DRSC20757	1.88e5	1.63e5	3.25e5	2.81e5	14545	inactive
barc (barricade)	DRSC11792	1.27e5	1.19e5	76755	92985	8240	inactive
Tmem43 (Transmembrane protein 43)	DRSC10964	3.19e5	3.33e5	5.36e5	2.88e5	15540	inactive
dysf (dysfusion)	DRSC14529	1.63e5	1.41e5	2.14e5	1.93e5	13415	inactive
dysf (dysfusion)	DRSC14895	1.15e5	1.07e5	1.52e5	1.46e5	9575	inactive
dysf (dysfusion)	DRSC14896	1.25e5	1.27e5	1.58e5	1.76e5	10582	inactive
dysf (dysfusion)	DRSC14897	11678	11290	9555	11482	3045	inactive
Cc2d2a (Coiled-coil and C2 domain containing 2A)	DRSC06750	31165	33015	41285	37730	6425	inactive
Mgat1	DRSC07463	2.45e5	1.42e5	2.85e5	2.36e5	10960	inactive
nw (narrow)	DRSC06749	1.28e5	1.14e5	1.88e5	1.76e5	9840	inactive
nw (narrow)	DRSC06896	1.14e5	78315	86950	61080	7580	inactive
Ids (Iduronate 2-sulfatase)	DRSC08222	88790	1.16e5	1.65e5	1.57e5	7420	inactive
Arpc1 (Actin-related protein 2/3 complex, subunit 1)	DRSC03438	2.07e5	2.12e5	1.61e5	1.60e5	15460	inactive
CG13893	DRSC08363	1.67e5	1.89e5	2.97e5	1.80e5	10455	inactive
CG15093	DRSC06522	90130	1.00e5	1.54e5	1.72e5	7092	inactive
CG8230	DRSC05931	1.62e5	1.57e5	1.80e5	1.73e5	12620	inactive
CG11275	DRSC04095	13255	17235	17590	21930	710	inactive
CG8818	DRSC07275	74290	78700	56510	71935	5620	inactive
Obp83a (Odorant-binding protein 83a)	DRSC12362	85030	1.05e5	83570	73600	4505	inactive
CheB38a (Chemosensory protein B 38a)	DRSC03205	38730	24465	38940	27620	1705	inactive
CG10395	DRSC04840	2.56e5	2.38e5	1.96e5	2.28e5	18640	inactive
CG12994	DRSC19192	94395	1.05e5	1.05e5	91040	7460	inactive
CG12994	DRSC19514	1.40e5	1.44e5	1.67e5	1.50e5	14425	inactive
Gad1 (Glutamic acid decarboxylase 1)	DRSC08661	75275	89060	68935	33470	6100	inactive
Gr59c (Gustatory receptor 59c)	DRSC04185	1.82e5	1.47e5	1.53e5	1.50e5	13260	inactive
Acsf3 (Acyl-CoA synthetase family member 3)	DRSC18146	1.76e5	1.77e5	2.79e5	3.58e5	13442	inactive
CG11755	DRSC14374	96700	1.13e5	1.04e5	92070	6955	inactive
ort (ora transientless)	DRSC16240	1.80e5	1.98e5	2.25e5	2.32e5	15525	inactive
bchs (blue cheese)	DRSC03126	1.76e5	1.31e5	1.69e5	1.91e5	10030	inactive
CG6664	DRSC10690	1.29e5	1.58e5	87665	1.15e5	11750	inactive
Mulk (Multi-substrate lipid kinase)	DRSC02658	2.33e5	2.46e5	2.24e5	2.03e5	17292	inactive
Ag5r2 (Antigen 5-related 2)	DRSC19328	84105	1.04e5	95930	1.09e5	11785	inactive
Trpm (Transient receptor potential cation channel, subfamily M)	DRSC06629	1.02e5	96290	1.77e5	1.93e5	10195	inactive
nom (numerous disordered muscles)	DRSC16389	1.08e5	1.07e5	1.06e5	81530	8135	inactive
CG13471	DRSC10015	1.81e5	1.58e5	2.48e5	2.40e5	9765	inactive
18w (18 wheeler)	DRSC05029	1.06e5	1.32e5	1.97e5	2.19e5	9405	inactive
Zir (Zizimin-related)	DRSC00307	98855	2.08e5	1.93e5	2.02e5	18185	inactive
CG15260	DRSC01977	1.58e5	1.63e5	1.45e5	1.66e5	13332	inactive
CG42724	DRSC12567	69230	54865	40445	45555	5660	inactive
CG42724	DRSC22275						inactive
Pask (PAS kinase)	DRSC04337	1.90e5	1.93e5	1.83e5	1.84e5	15785	inactive
Taf2 (TBP-associated factor 2)	DRSC11298	95510	72760	55670	33715	7050	inactive
CG10681	DRSC09777	1.11e5	96785	94015	40955	10310	inactive

Entries above whose target name begins with M or m (2):
gene	amplicon	induced reporter light, run 1, well a	induced reporter light, run 1, well b	control promoter light, run 1, well a	control promoter light, run 1, well b	uninduced reporter light, run 1, well a	Outcome
Mgat1	DRSC07463	2.45e5	1.42e5	2.85e5	2.36e5	10960	inactive
Mulk (Multi-substrate lipid kinase)	DRSC02658	2.33e5	2.46e5	2.24e5	2.03e5	17292	inactive
